# Patent US10005817B2 (EUMEDERIS PHARMACEUTICALS, INC., priority 2012, dated 2018)
# Tests used:
# [1] = general procedure: Fmoc solid-phase peptide synthesis; Fmoc-Rink-Amide resin (0.5 mmol/g); Fmoc-Thr(tBu)-HMP Am Resin (0.45 mmol/g) for EU-A1024; DIC/HOBt; settings: whole synthesis, scale of the general procedure 0.3 mmol, 2 mmole for EU-A1024; for final LC-MS purity: analytical hplc/mass spectrometry
# [2] = general procedure: Fmoc solid-phase peptide synthesis; Fmoc-Rink-Amide resin; DIC/HOBt; settings: whole synthesis, scale 0.3 mmol
# [3] = general procedure: Fmoc solid-phase peptide synthesis; Fmoc-Thr(tBu)-HMP Am Resin; DIC/HOBt; settings: whole synthesis, scale 2 mmole
substance,measurement,setting,value
"2′,6′-dimethyl-L-tyrosyl-L-1,2,3,4-tetrahydroisoquinoline-3-carbonyl-L-phenylalanyl-L-phenylalanyl-Nε-(1′-methyl β-D-glucuronyl)-L-lysyl-amide",final LC-MS purity,[1],98.99%
"2′,6′-dimethyl-L-tyrosyl-L-1,2,3,4-tetrahydroisoquinoline-3-carbonyl-L-phenylalanyl-Nε-(1′-methyl β-D-glucuronyl)-L-lysyl-amide",final LC-MS purity,[1],95.5%
"2′,6′-dimethyl-L-tyrosyl-Nε-(1′-dodecyl β-D-glucuronyl)-D-lysyl-2′,4′,6′-trimethyl-L-phenylalanyl-L-phenylalanine-amide",final LC-MS purity,[1],95.8%
"2′,6′-dimethyl-L-tyrosyl-prolyl-2′,4′,6′-trimethyl-L-phenylalanyl-L-phenylalanyl-Nε-(1′-dodecyl β-D-glucuronyl)-L-lysine amide",final LC-MS purity,[1],96.1%
"2′,6′-dimethyl-L-tyrosyl-prolyl-2′,4′,6′-trimethyl-L-phenylalanyl-Nε-(1′-octyl β-D-glucuronyl)-L-lysine amide",crude mass,[2],290 mg
same,isolated mass,[2],100 mg
same,final LC-MS purity,[1],>96%
same,isolated yield,[1]; overall,18%
Boc-His(Trt)-Aib-Gln(Trt)-Gly-Thr(tBu)-Phe-Thr(tBu)-Ser(tBu)-Asp(OtBu)-Tyr(tBu)-Ser(tBu)-Lys(Boc)-Tyr(tBu)-Leu-Asp(OtBu)-Glu(O-Allyl)-Gln(Trt)-Ala-Ala-Lys(Alloc)-Glu(O-tBu)-Phe-Ile-Lys(Dde)-Trp(Boc)-Leu-Leu- Gln(Trt)-Thr(tBu)-HMP amide resin,crude mass,[3],5 to 8 g
